Reference: publication PMC11951083, “Highly Specific Miniaturized Fluorescent Monoacylglycerol Lipase Probes Enable Translational Research” (Journal of the American Chemical Society, 2025)

Test system: HT-29 cells
Assay: Confocal colocalization with ER-Tracker Red in live HT-29 cells
Assay type: cell-based, human
Settings: costaining with ER-Tracker red, probe 150 nM

SMILES | Pearson correlation coefficient r
O=C(O[C@H](CO)C(F)(F)F)N1CC2(CC(CC3=C4C=CC=[N+]4[B-](F)(F)n4cccc43)C2)C1 [Compound 1] | 0.98
O=C(N1CC2(CC(CC3=C4C=CC=[N+]4[B-](F)(F)n4cccc43)C2)C1)N1CC2(CC(n3cnc(C4CC4)n3)C2)C1 [Compound 5] | 0.87
